From the supplement of paper PMC10849652
The list shows a part of the results.

Amino acid sequences for entries named in this document (tags omitted). A change or cut given only in a name is not applied to a line headed by its entry.
UniProt Q13454: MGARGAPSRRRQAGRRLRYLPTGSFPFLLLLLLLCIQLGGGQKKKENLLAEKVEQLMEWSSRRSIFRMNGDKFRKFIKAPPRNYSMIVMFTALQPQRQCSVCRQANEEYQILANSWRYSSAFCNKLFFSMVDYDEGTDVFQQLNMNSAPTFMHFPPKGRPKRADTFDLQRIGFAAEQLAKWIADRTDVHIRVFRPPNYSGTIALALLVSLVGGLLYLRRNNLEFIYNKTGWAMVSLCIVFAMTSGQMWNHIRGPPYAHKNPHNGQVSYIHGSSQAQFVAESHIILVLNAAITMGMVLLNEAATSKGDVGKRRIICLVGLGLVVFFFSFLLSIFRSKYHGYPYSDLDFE
UniProt P83876: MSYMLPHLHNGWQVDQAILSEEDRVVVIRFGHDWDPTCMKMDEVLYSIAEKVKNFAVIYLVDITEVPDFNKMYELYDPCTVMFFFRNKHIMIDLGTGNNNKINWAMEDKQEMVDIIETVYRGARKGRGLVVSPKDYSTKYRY
UniProt Q9NUQ3: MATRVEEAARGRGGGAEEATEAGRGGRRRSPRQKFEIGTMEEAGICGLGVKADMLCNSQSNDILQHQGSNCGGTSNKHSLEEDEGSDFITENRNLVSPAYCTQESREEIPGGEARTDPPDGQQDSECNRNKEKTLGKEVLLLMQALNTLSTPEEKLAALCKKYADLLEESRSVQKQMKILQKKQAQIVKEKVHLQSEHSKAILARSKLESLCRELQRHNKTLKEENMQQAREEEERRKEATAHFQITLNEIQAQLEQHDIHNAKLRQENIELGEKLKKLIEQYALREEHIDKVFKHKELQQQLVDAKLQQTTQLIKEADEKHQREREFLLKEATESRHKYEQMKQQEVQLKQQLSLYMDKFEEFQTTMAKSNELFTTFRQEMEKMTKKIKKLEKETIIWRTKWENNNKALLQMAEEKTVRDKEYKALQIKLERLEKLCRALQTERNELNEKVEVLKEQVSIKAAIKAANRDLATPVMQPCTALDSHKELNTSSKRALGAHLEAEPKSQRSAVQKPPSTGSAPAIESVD
UniProt Q9NPD8: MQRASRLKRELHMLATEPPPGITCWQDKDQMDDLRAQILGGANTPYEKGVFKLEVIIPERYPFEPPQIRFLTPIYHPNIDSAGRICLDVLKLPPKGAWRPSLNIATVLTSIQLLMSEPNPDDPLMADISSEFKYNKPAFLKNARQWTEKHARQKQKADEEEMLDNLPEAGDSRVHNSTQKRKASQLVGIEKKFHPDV
UniProt P10599: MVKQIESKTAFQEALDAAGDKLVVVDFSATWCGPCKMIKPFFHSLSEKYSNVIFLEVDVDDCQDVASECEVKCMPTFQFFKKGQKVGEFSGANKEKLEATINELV
UniProt P68371, whole entry, looked up: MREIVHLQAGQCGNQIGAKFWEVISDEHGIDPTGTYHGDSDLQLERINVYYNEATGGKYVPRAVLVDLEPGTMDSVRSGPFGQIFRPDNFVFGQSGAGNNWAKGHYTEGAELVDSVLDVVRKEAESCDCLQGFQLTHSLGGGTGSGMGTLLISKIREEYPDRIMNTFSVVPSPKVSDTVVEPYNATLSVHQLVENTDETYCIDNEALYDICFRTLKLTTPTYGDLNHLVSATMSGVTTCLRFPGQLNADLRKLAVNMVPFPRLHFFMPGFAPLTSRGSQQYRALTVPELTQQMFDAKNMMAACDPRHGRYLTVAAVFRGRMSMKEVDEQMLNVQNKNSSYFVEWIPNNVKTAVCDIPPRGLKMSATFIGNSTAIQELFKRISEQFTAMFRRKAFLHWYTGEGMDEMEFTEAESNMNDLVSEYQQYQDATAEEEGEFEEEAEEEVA
UniProt Q16222: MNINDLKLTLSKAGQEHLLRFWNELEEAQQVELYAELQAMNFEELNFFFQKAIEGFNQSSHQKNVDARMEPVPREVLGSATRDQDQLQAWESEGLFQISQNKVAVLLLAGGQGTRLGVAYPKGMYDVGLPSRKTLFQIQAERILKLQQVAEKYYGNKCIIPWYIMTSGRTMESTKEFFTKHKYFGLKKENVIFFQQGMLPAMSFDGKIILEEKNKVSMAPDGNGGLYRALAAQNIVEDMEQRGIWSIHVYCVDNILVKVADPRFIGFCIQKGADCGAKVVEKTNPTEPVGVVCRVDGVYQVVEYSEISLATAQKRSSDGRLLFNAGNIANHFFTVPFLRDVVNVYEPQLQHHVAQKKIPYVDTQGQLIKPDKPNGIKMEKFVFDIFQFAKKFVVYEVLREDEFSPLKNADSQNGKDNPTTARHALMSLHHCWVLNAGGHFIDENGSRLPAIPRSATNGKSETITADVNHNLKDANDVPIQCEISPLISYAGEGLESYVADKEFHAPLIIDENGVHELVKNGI
UniProt P23258, whole entry, looked up: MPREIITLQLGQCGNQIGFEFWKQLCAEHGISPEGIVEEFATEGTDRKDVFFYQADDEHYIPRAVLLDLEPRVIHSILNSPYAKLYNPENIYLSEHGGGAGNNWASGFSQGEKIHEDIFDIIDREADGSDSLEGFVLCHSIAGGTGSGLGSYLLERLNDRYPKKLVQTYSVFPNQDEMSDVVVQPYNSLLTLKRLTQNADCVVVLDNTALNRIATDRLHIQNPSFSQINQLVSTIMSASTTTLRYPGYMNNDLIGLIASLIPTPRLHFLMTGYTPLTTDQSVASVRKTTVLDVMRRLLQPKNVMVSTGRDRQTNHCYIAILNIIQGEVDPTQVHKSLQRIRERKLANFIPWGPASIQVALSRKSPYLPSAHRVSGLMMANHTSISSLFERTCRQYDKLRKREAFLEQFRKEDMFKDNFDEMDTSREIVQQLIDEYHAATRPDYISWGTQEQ
UniProt P63146, whole entry, looked up: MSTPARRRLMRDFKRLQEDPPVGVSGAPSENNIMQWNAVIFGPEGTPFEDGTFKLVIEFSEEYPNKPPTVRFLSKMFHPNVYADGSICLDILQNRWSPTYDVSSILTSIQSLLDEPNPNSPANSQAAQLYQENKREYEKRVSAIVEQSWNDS
UniProt Q96J42: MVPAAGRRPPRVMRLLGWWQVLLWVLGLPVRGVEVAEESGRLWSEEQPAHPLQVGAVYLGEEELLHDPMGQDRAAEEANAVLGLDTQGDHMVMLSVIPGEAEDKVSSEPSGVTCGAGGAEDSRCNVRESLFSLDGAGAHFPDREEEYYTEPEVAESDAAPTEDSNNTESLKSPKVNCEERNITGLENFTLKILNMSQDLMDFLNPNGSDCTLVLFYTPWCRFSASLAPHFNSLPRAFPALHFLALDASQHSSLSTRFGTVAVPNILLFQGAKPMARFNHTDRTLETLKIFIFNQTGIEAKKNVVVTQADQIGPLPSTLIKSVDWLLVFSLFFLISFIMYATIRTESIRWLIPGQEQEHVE
UniProt P61077: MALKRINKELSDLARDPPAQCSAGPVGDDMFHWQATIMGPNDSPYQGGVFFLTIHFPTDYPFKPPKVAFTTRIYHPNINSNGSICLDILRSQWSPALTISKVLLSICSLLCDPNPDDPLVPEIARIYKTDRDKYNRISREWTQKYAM
UniProt Q9BRA2: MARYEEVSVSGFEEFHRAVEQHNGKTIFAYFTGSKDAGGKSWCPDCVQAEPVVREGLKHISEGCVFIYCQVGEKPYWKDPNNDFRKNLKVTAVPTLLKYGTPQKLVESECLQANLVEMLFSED
UniProt Q8NG68: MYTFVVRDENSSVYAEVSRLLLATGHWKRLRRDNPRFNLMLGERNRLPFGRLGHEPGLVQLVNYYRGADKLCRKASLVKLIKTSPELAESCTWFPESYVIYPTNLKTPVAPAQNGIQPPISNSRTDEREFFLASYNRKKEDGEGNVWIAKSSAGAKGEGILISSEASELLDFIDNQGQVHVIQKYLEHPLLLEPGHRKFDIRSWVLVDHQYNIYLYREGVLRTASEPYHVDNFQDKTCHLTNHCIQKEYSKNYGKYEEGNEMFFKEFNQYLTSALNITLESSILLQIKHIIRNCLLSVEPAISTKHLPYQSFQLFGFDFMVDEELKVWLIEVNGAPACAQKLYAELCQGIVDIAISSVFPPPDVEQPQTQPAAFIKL
UniProt P30536, whole entry, looked up: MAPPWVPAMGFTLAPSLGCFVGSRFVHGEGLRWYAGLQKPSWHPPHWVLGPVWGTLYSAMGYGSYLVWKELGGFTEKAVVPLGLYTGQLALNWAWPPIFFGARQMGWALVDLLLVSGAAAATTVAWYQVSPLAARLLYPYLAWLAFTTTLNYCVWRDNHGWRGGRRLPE
UniProt Q5JXB2: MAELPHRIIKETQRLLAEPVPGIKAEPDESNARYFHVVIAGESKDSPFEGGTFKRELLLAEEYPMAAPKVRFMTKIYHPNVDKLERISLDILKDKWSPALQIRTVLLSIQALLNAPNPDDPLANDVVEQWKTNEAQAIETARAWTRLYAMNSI
UniProt Q8N5M4: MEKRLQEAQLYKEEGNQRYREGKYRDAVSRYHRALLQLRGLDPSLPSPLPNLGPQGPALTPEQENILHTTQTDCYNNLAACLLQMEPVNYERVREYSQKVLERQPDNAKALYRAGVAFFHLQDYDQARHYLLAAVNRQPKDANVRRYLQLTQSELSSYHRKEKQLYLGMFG

Legend:
Test in all cases: log2 fold change, soluble protein after heating vs DMSO (PISA); higher = thermal stabilisation; K562 cells, 10 uM, 30 min; active = over 0.2 and 3.5 SD of the protein, either way, in both replicates (recomputed)
[1] = compound: COC1=CC=C(C=C1)CN2C=CC3=C2C=C(C=C3)C(=O)NO
Outline: (§1)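 Thermal stability values are relative to control samples and come from duplicates. They are expressed as log2 fold changes. For measurement, K562 cells (2×10^6 cells/mL) received 10 μM compound for 30 min, and aliquots were heated for 3 min over 48°C-58°C, pooled, and extracted at 4°C in PBS with 0.5% NP-40. Soluble protein, the supernatant after 21,000xg for 90 min, was quantified by TMTpro 16plex LC-MS/MS with equalised channel sums.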

filanesib = compound: CON(C)C(=O)N1N=C(c2cc(F)ccc2F)S[C@@]1(CCCN)c1ccccc1 [filanesib]
Outline: as §1

zotarolimus = compound: CO[C@H]1C[C@@H]2CC[C@@H](C)[C@@](O)(O2)C(=O)C(=O)N2CCCC[C@H]2C(=O)O[C@H]([C@H](C)C[C@@H]2CC[C@H](n3cnnn3)[C@H](OC)C2)CC(=O)[C@H](C)/C=C(\C)[C@@H](O)[C@@H](OC)C(=O)[C@H](C)C[C@H](C)/C=C/C=C/C=C/1C [zotarolimus]
Outline: as §1

idasanutlin = compound: COc1cc(C(=O)O)ccc1NC(=O)[C@@H]1N[C@@H](CC(C)(C)C)[C@](C#N)(c2ccc(Cl)cc2F)[C@H]1c1cccc(Cl)c1F [idasanutlin]
Outline: as §1

alisertib = compound: COc1cc(Nc2ncc3c(n2)-c2ccc(Cl)cc2C(c2c(F)cccc2OC)=NC3)ccc1C(=O)O [alisertib]
Outline: as §1

[2] = compound: COc1cc2nc(-c3cc(F)ccc3O)nc(N[C@@H]3CNC[C@H]3C(C)(C)O)c2cc1OC
Outline: as §1

gefitinib = compound: COc1cc2ncnc(Nc3ccc(F)c(Cl)c3)c2cc1OCCCN1CCOCC1 [gefitinib]
Outline: as §1

[3] = compound: COc1cccc2cc(-c3nc([C@H]4CC[C@H](C(=O)O)CC4)n4ncnc(N)c34)[nH]c12
Outline: as §1

lapatinib = compound: CS(=O)(=O)CCNCc1ccc(-c2ccc3ncnc(Nc4ccc(OCc5cccc(F)c5)c(Cl)c4)c3c2)o1 [lapatinib]
Outline: as §1

pictilisib = compound: CS(=O)(=O)N1CCN(Cc2cc3nc(-c4cccc5[nH]ncc45)nc(N4CCOCC4)c3s2)CC1 [pictilisib]
Outline: as §1

[4] = compound: CS(=O)(=O)c1ccc(-c2cnc(N)c(C(=O)Nc3ccccc3)n2)cc1
Outline: as §1

crizotinib = compound: C[C@@H](Oc1cc(-c2cnn(C3CCNCC3)c2)cnc1N)c1c(Cl)ccc(F)c1Cl [crizotinib]
Outline: as §1

[5] = compound: C[C@@H]1COCCN1C2=NC(=NC(=C2)C3(CC3)S(=O)(=O)C)C4=C5C=CNC5=CC=C4
Outline: as §1

[6] = compound: C[C@H](C1=CC=C(C=C1)C(=O)NC2=C3C=CNC3=NC=C2)N
Outline: as §1

duvelisib = compound: C[C@H](Nc1ncnc2nc[nH]c12)c1cc2cccc(Cl)c2c(=O)n1-c1ccccc1 [duvelisib]
Outline: as §1

gandotinib = compound: Cc1cc(Nc2cc(CN3CCOCC3)c3nc(C)c(Cc4ccc(Cl)cc4F)n3n2)n[nH]1 [gandotinib]
Outline: as §1

tozasertib = compound: Cc1cc(Nc2cc(N3CCN(C)CC3)nc(Sc3ccc(NC(=O)C4CC4)cc3)n2)n[nH]1 [tozasertib]
Outline: as §1

[7] = compound: Cc1cc(SCc2sc(-c3ccc(C(F)(F)F)cc3)nc2C)ccc1OCC(=O)O
Outline: as §1

doramapimod = compound: Cc1ccc(-n2nc(C(C)(C)C)cc2NC(=O)Nc2ccc(OCCN3CCOCC3)c3ccccc23)cc1 [doramapimod]
Outline: as §1

ispinesib = compound: Cc1ccc(C(=O)N(CCCN)[C@@H](c2nc3cc(Cl)ccc3c(=O)n2Cc2ccccc2)C(C)C)cc1 [ispinesib]
Outline: as §1

Measured: log2 fold change

TUSC3 isoform 2 (UniProt Q13454)
inactive: [1] -0.026 | filanesib 0.05 | zotarolimus -0.011 | idasanutlin -0.013 | alisertib -0.156 | [2] -0.003 | gefitinib -0.003 | [3] 0.108 | lapatinib 0.023 | pictilisib 0.066 | [4] -0.032 | crizotinib -0.002 | [5] -0.01 | [6] 0.088 | duvelisib 0.008 | gandotinib 0.118 | tozasertib -0.04 | [7] -0.019 | doramapimod 0.025 | ispinesib -0.062

TXNL4A (UniProt P83876)
inactive: [1] -0.053 | filanesib -0.09 | zotarolimus -0.009 | idasanutlin -0.015 | alisertib -0.004 | [2] 0.051 | gefitinib 0.024 | [3] 0.038 | lapatinib 0.012 | pictilisib 0.053 | [4] 0.025 | crizotinib -0.097 | [5] -0.013 | [6] -0.012 | duvelisib -0.017 | gandotinib -0.071 | tozasertib -0.033 | [7] -0.037 | doramapimod 0.006 | ispinesib -0.031

TXLNG (UniProt Q9NUQ3)
inactive: [1] -0.005 | filanesib -0.094 | zotarolimus -0.021 | idasanutlin -0.033 | alisertib -0.024 | [2] 0.004 | gefitinib 0.029 | [3] 0.006 | lapatinib 0.009 | pictilisib -0.012 | [4] -0.018 | crizotinib 0.015 | [5] 0.065 | [6] -0.004 | duvelisib 0.019 | gandotinib 0.005 | tozasertib -0.039 | [7] -0.02 | doramapimod -0.048 | ispinesib 0.056

UBE2T (UniProt Q9NPD8)
inactive: [1] -0.046 | filanesib 0.026 | zotarolimus 0.049 | idasanutlin 0.008 | alisertib -0.014 | [2] 0.131 | gefitinib 0.049 | [3] 0.023 | lapatinib -0.02 | pictilisib 0.074 | [4] -0.009 | crizotinib 0.046 | [5] 0.082 | [6] -0.004 | duvelisib 0.063 | gandotinib -0.04 | tozasertib -0.006 | [7] 0.016 | doramapimod -0.007 | ispinesib -0.01

TXN (UniProt P10599)
inactive: [1] -0.043 | filanesib -0.007 | zotarolimus -0.005 | idasanutlin 0.044 | alisertib -0.086 | [2] -0.003 | gefitinib 0.012 | [3] 0.025 | lapatinib 0.002 | pictilisib -0.091 | [4] 0.009 | crizotinib 0.014 | [5] -0.047 | [6] -0.061 | duvelisib -0.033 | gandotinib -0.018 | tozasertib -0.028 | [7] -0.079 | doramapimod -0.016 | ispinesib 0.019

TUBB4B (UniProt P68371)
inactive: [1] 0.027 | filanesib -0.133 | zotarolimus 0.031 | idasanutlin -0.048 | alisertib 0.055 | [2] -0.057 | gefitinib -0.011 | [3] 0.023 | lapatinib -0.045 | pictilisib -0.046 | [4] 0.01 | crizotinib -0.126 | [5] 0.088 | [6] -0.076 | duvelisib 0.037 | gandotinib -0.086 | tozasertib -0.046 | [7] -0.015 | doramapimod 0.011 | ispinesib 0.022

UAP1 (UniProt Q16222)
inactive: [1] -0.028 | filanesib -0.088 | zotarolimus 0.038 | idasanutlin -0.056 | alisertib -0.054 | [2] 0.061 | gefitinib -0.006 | [3] 0.027 | lapatinib -0.059 | pictilisib 0.059 | [4] 0.037 | crizotinib 0.012 | [5] 0.081 | [6] -0.116 | duvelisib 0.032 | gandotinib -0.043 | tozasertib -0.022 | [7] 0.014 | doramapimod -0.043 | ispinesib 0.019

TUBG1 (UniProt P23258)
inactive: [1] -0.017 | filanesib 0.045 | zotarolimus -0.013 | idasanutlin -0.006 | alisertib -0.042 | [2] 0 | gefitinib 0.049 | [3] 0.029 | lapatinib 0.017 | pictilisib -0.008 | [4] 0.008 | crizotinib -0.019 | [5] 0.029 | [6] 0.08 | duvelisib 0.008 | gandotinib -0.014 | tozasertib -0.09 | [7] -0.029 | doramapimod 0.027 | ispinesib -0.018

UBE2B (UniProt P63146)
inactive: [1] -0.087 | filanesib -0.113 | zotarolimus 0.038 | idasanutlin -0.059 | alisertib -0.074 | [2] 0.057 | gefitinib -0.034 | [3] 0.034 | lapatinib 0 | pictilisib -0.055 | [4] 0.02 | crizotinib 0.046 | [5] 0.059 | [6] 0.019 | duvelisib -0.039 | gandotinib -0.255 | tozasertib -0.028 | [7] 0.173 | doramapimod 0.044 | ispinesib 0.042

TXNDC15 (UniProt Q96J42)
inactive: [1] 0.111 | filanesib -0.088 | zotarolimus -0.193 | idasanutlin 0.295 | alisertib -0.02 | [2] -0.017 | gefitinib -0.024 | [3] 0.063 | lapatinib 0.019 | pictilisib -0.111 | [4] 0.069 | crizotinib -0.08 | [5] 0.099 | [6] 0.179 | duvelisib 0.023 | gandotinib -0.062 | tozasertib -0.147 | [7] 0.023 | doramapimod 0.068 | ispinesib 0.013

UBE2D3 isoform 3 (UniProt P61077)
inactive: [1] 0.006 | filanesib -0.068 | zotarolimus 0.093 | idasanutlin -0.14 | alisertib -0.075 | [2] 0.03 | gefitinib -0.035 | [3] 0.034 | lapatinib -0.022 | pictilisib -0.079 | [4] 0.009 | crizotinib 0.031 | [5] 0.041 | [6] -0.032 | duvelisib -0.02 | gandotinib -0.04 | tozasertib -0.033 | [7] 0.01 | doramapimod -0.006 | ispinesib 0.024

TXNDC17 (UniProt Q9BRA2)
inactive: [1] 0.018 | filanesib -0.058 | zotarolimus 0.017 | idasanutlin -0.038 | alisertib -0.084 | [2] -0.036 | gefitinib -0.001 | [3] 0.014 | lapatinib -0.01 | pictilisib 0.122 | [4] 0.003 | crizotinib 0.017 | [5] 0.048 | [6] -0.112 | duvelisib 0.043 | gandotinib -0.012 | tozasertib 0.057 | [7] -0.041 | doramapimod -0.023 | ispinesib 0.043

TTL (UniProt Q8NG68)
inactive: [1] 0.018 | filanesib -0.167 | zotarolimus -0.018 | idasanutlin -0.016 | alisertib 0.044 | [2] 0.006 | gefitinib -0.028 | [3] 0.182 | lapatinib 0.047 | pictilisib 0.032 | [4] 0.015 | crizotinib -0.027 | [5] 0.083 | [6] 0.076 | duvelisib 0.016 | gandotinib 0.053 | tozasertib 0.085 | [7] 0.007 | doramapimod 0.012 | ispinesib -0.04

TSPO (UniProt P30536)
inactive: [1] -0.089 | filanesib -0.009 | zotarolimus -0.002 | idasanutlin 0.014 | alisertib 0.028 | [2] 0.019 | gefitinib -0.01 | [3] 0.045 | lapatinib -0.059 | pictilisib 0.009 | [4] -0.003 | crizotinib 0.066 | [5] 0.142 | [6] -0.034 | duvelisib 0.109 | gandotinib -0.046 | tozasertib 0.003 | [7] -0.077 | doramapimod 0.007 | ispinesib 0.034

UBE2NL (UniProt Q5JXB2)
inactive: [1] -0.021 | filanesib -0.108 | zotarolimus 0.063 | idasanutlin -0.004 | alisertib -0.102 | [2] -0.073 | gefitinib 0.009 | [3] 0.005 | lapatinib -0.051 | pictilisib -0.006 | [4] -0.028 | crizotinib 0 | [5] 0.108 | [6] -0.045 | duvelisib 0.048 | gandotinib -0.039 | tozasertib 0.076 | [7] -0.021 | doramapimod 0.002 | ispinesib 0.006

2 entries drawn at random from the list so far, as already listed:
TXLNG (UniProt Q9NUQ3)
inactive: [1] -0.005 | filanesib -0.094 | zotarolimus -0.021 | idasanutlin -0.033 | alisertib -0.024 | [2] 0.004 | gefitinib 0.029 | [3] 0.006 | lapatinib 0.009 | pictilisib -0.012 | [4] -0.018 | crizotinib 0.015 | [5] 0.065 | [6] -0.004 | duvelisib 0.019 | gandotinib 0.005 | tozasertib -0.039 | [7] -0.02 | doramapimod -0.048 | ispinesib 0.056

TUBG1 (UniProt P23258)
inactive: [1] -0.017 | filanesib 0.045 | zotarolimus -0.013 | idasanutlin -0.006 | alisertib -0.042 | [2] 0 | gefitinib 0.049 | [3] 0.029 | lapatinib 0.017 | pictilisib -0.008 | [4] 0.008 | crizotinib -0.019 | [5] 0.029 | [6] 0.08 | duvelisib 0.008 | gandotinib -0.014 | tozasertib -0.09 | [7] -0.029 | doramapimod 0.027 | ispinesib -0.018

Later entries.

TTC9C (UniProt Q8N5M4)
inactive: [1] 0.165 | filanesib -0.041 | zotarolimus 0.28 | idasanutlin -0.057 | alisertib 0.024 | [2] 0.018 | gefitinib 0.03 | [3] 0.038 | lapatinib 0.002 | pictilisib 0.053 | [4] -0.022 | crizotinib -0.003 | [5] 0.191 | [6] 0.028 | duvelisib 0.121 | gandotinib -0.015 | tozasertib -0.037 | [7] 0.12 | doramapimod -0.06 | ispinesib -0.008
